Results are given in words; binding and its absence hold for the method and conditions named. Binding seen in cells or lysates may run through a third protein. Some results given as binding are weak or reduced against the parent protein; the word gives no strength.

By UniProt entry, the sequences of proteins in these tests, tags left out. Residues count along the entry.
UniProt P02545, residues 1-646: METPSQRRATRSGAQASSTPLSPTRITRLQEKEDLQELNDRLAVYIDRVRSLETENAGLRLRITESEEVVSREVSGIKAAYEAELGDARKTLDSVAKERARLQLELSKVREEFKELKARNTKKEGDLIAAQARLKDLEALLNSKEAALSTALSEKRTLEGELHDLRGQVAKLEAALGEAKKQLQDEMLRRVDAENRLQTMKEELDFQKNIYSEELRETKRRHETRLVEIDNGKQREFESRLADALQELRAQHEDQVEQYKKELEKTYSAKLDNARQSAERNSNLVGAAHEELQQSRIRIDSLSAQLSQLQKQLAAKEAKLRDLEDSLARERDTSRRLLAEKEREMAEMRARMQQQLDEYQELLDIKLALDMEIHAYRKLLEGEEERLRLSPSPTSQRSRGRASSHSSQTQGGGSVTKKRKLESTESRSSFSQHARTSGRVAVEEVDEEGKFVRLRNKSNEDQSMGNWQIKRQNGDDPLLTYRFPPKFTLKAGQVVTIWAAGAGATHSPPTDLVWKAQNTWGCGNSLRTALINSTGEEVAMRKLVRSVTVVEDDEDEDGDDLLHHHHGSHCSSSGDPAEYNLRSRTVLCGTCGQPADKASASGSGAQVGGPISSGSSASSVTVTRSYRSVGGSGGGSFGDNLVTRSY
UniProt A5YKK6: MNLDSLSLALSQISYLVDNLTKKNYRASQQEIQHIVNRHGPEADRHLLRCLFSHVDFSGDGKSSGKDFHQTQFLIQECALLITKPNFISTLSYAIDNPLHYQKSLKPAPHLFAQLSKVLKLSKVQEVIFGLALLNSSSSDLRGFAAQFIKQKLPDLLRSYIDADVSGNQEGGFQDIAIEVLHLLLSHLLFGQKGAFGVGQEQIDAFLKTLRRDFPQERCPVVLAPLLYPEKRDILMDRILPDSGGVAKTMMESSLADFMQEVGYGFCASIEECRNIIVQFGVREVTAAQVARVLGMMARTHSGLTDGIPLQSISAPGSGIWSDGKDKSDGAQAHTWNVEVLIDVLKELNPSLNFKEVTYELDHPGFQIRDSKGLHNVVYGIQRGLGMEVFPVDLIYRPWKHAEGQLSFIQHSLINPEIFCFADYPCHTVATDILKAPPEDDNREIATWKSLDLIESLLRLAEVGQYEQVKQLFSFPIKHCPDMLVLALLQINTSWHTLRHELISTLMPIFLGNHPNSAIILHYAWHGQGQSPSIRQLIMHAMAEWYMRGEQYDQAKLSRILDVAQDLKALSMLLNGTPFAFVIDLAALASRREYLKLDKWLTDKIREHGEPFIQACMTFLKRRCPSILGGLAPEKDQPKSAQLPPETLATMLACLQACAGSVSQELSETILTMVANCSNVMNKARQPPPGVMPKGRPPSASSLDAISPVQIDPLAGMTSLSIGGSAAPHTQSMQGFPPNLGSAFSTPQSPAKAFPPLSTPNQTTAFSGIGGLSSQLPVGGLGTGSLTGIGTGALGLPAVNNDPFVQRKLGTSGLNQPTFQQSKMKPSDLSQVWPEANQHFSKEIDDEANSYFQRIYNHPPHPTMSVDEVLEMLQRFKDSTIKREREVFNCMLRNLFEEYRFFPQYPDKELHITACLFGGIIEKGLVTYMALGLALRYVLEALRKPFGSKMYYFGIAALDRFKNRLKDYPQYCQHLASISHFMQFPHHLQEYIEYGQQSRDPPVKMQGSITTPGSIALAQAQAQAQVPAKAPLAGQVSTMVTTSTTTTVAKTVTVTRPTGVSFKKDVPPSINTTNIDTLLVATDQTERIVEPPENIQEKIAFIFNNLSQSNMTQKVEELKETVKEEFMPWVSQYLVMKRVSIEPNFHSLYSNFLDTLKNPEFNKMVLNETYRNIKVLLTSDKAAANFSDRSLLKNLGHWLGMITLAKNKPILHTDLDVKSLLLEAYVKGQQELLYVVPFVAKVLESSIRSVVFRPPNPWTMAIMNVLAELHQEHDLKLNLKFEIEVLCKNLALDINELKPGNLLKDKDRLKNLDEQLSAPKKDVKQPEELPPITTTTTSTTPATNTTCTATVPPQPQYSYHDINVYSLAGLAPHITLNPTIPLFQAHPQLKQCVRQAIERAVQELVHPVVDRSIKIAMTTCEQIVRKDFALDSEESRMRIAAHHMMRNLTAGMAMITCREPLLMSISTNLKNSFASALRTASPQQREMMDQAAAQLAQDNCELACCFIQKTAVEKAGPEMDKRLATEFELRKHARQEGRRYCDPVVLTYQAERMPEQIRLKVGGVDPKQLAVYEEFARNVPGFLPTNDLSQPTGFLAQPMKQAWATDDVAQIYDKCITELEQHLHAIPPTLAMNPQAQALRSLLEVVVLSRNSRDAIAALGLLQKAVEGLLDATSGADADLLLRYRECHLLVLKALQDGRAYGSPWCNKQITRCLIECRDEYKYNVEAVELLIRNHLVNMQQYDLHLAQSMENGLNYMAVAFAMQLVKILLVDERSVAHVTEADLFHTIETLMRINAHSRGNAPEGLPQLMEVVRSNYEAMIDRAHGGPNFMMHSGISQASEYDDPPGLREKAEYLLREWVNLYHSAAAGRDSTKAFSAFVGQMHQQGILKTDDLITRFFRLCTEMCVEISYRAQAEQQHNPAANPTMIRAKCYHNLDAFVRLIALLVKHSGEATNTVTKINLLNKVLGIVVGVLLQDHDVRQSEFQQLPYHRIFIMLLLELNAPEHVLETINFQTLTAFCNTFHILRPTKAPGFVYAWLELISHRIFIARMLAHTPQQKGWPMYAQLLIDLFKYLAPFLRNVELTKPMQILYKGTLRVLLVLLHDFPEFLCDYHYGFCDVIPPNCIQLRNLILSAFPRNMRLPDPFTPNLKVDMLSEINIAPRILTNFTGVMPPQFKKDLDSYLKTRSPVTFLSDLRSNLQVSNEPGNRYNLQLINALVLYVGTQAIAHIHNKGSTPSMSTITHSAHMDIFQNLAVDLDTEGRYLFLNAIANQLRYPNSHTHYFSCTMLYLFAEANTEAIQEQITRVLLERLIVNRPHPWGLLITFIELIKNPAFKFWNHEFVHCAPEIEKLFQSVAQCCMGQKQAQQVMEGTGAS

Assay [1] has as its target lamin A (human (endogenous in MNNG/HOS, MG63, U2OS)) (UniProt P02545). The assay is described as follows: co-IP; endogenous proteins in whole-cell lysates (3000 μg protein) of MNNG/HOS, MG63 and U2OS cells; anti-CNOT1 or anti-LMNA antibody at 4 °C overnight, protein A/G magnetic beads 4 °C 3 h, washed with PBS containing 1‰ Triton X-100; immunoblot; IgG as negative control.

Assay [2] has as its target CCR4–NOT transcription complex subunit 1 (human (endogenous in MNNG/HOS, MG63, U2OS)) (UniProt A5YKK6). The description is as above.

Regarding “CCR4–NOT transcription complex subunit 1 (from UniProt A5YKK6 1-2376)”, in assay [1], the binding entry is reported as “binds”.

With lamin A (from UniProt P02545 1-646), the binding result in assay [2] is recorded as “binds”.

For the origin of these results see publication PMC5527480.
